No constants are given. Whether binding was seen depends on the method and setting. In cells and extracts the contact can be indirect. Some entries that bind do so weakly or less than the wild type. Tags and fused reporters may be left off the sequences shown.
Key:
[1] = molecular target: T1, Flag-tagged Cry2 C432A (mouse) (UniProt Q9R194); experiment: co-IP
T1 sequence: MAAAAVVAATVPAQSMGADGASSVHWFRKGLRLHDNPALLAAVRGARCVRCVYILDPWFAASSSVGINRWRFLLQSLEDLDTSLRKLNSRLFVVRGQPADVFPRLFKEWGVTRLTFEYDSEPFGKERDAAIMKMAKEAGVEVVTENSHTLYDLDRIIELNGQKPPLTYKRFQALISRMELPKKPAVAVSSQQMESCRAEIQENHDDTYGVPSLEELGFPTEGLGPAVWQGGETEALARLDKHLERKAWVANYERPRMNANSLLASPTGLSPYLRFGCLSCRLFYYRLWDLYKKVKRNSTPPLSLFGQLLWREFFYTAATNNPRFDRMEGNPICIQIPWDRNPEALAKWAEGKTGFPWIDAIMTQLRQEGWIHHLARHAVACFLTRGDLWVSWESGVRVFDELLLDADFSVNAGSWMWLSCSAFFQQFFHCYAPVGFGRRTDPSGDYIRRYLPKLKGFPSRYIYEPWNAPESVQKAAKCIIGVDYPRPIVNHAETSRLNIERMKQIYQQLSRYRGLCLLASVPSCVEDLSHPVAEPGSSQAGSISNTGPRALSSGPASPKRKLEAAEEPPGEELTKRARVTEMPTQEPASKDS

[2] = molecular target: T2, Flag-tagged Cry2 (Cryptochrome 2), wild type (mouse) (UniProt Q9R194); experiment: co-IP
T2 sequence: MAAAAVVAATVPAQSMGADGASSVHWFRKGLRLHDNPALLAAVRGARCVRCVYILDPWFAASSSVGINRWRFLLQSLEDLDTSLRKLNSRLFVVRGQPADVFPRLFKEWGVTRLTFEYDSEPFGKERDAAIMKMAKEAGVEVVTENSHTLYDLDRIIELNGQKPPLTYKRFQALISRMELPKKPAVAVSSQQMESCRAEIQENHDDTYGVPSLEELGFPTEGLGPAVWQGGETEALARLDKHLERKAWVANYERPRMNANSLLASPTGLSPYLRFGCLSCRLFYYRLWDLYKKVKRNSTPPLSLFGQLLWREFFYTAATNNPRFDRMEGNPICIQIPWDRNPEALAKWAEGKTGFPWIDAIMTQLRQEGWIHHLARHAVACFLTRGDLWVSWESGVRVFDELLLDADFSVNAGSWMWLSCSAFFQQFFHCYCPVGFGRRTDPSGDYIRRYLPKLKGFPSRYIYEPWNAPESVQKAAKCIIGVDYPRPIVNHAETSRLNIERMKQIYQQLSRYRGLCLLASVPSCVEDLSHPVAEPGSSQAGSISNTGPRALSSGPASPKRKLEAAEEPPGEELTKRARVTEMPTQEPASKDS

B1: Myc-tagged Fbxl3 (protein, UniProt Q8C4V4 1-428)
chain: MKRGGRDSDQDSAEEGTAEKPKRPRTTQERSQPCDWGNLLQDIVLHVFKYLPLLDRAHASQVCRNWNQVFHMPDLWRCFEFELNQPATSYLKATHPELIKQIIKRHSNHLQYVSFKVDSSKESAEAACDILSQLVNCSLKTLGLISTARPSFMDLPKSHFISALTVVFVNSKSLSSLKIDDTPVDDPSLKVLVANNSDTLKLLKMSSCPHVSPAGILCVADQCHGLRELALNYHLLSDELLLALSSEKHVRLEHLRIDVVSENPGQTHFHTIQKSSWDAFIKHSPKVNLVMYFFLYEEEFDPFFRYEIPATHLYFGRSVSKDVLGRVGMTCPRLVELVVCANGLRPLDEELIRIAERCKNLSAIGLGECEVSCSAFVEFVKMCGGRLSQLSIMEEVLIPDQKYSLEQIHWEVSKHLGRVWFPDMMPTW
binding [1]: no binding | binding [2]: binds

Reference: doi:10.1101/2023.03.12.532323
